Assay results from PubChem BioAssay AID504444 (National Center for Advancing Translational Sciences (NCATS), 2011).
In all, about 360,000 compounds went through this assay and about 7,500 (2.1%) were called active. Inconclusive means that the source gave no clear call. Such entries were picked first, then a sample of the others. The call rests on the fitted dose curve; in most records, active means well fitted inhibition curve with a large enough effect; inconclusive means small, poorly fitted or top-dose-only effect, or effect the other way; inactive means flat fitted curve, though single readings scatter. Potencies beside an inconclusive call are fits to weak or partial responses and may not hold up.

Assay: Nrf2 qHTS screen for inhibitors; further: nearly all actives have a fitted effect of over 60% in size
Details: A549 ARE-Fluc reporter, luciferase luminescence, 18-24 h; series mostly up to 46 µM
Outline: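 Quantitative HTS in A549 cells stably bearing an antioxidant response element-firefly luciferase construct. Inhibition of Nrf2-driven transcription was scored by luminescence after 18-24 h of compound exposure at 37 °C.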
Potency means the concentration at half of the fitted maximal effect.

| SMILES | Potency |
| --- | --- |
| Cc1ccc(C)c(OCC(=O)O/N=C(\N)c2cccnc2)c1 | inconclusive: 10.3 µM [activator, partial curve] |
| COc1ccc(N2CCN(C(c3ccc(C)cc3)c3nnnn3C(C)(C)C)CC2)cc1 (centres undefined) | inactive |
| O=C(COCc1cc(-c2cccs2)on1)NCc1ccc(Cl)cc1 | inactive |
| CC1=C(C(=O)OCc2ccccc2)C(c2cccc(F)c2)NC(=O)N1 (centres undefined) | inconclusive: 25.9 µM [falling, single point] |
| CCN1CCN(C2=C(NS(=O)(=O)c3ccc(NC(C)=O)cc3)C(=O)c3ccccc3C2=O)CC1 | inconclusive: 16.4 µM [falling, partial curve] |
| N#CN1CCC(NC(=O)c2cccc(C(F)(F)F)c2)CC1 | inactive |
| CCOc1ccccc1N(C(=O)Nc1cccc(Cl)c1)C1=NC(C)CS1 (centres undefined) | inconclusive: 14.6 µM [activator, partial curve, poor fit] |
| COc1cccc(CNC(=O)Cc2csc3ccccc23)c1OC | inconclusive: 13 µM [activator, single point] |
| CCOC(=O)c1c(C)nc2c(c1C)/C(=N/O)CC(C)(C)C2 | inactive |
| CCOC(=O)c1cc(C#N)c(N2CCN(C)CC2)nc1-c1ccccc1 | inactive |
| O=[N+]([O-])c1cc(Cl)ccc1N1CCN(c2ccccc2O)CC1 | inconclusive: 14.6 µM [falling, partial curve, poor fit] |
| CC1(c2ccc3ccccc3c2)NC(=O)N(CC(=O)Nc2cccc(S(=O)(=O)N3CCOCC3)c2)C1=O (centres undefined) | inconclusive: 23.1 µM [falling, single point] |
| CC(NC(=O)CN1CCOCC1)c1ccccc1 (centres undefined) | inconclusive: 6.51 µM [activator, partial curve, poor fit] |
| COc1ccc(N2CCN(S(=O)(=O)c3ccc4c(c3)CC(C)N4C(=O)C3CC3)CC2)cc1 (centres undefined) | inactive |
| Cc1ccc(-n2nc(C)c3c(C)cc(=O)n(CC(=O)N4CCCc5ccccc54)c32)cc1 | inconclusive: 29.1 µM [activator, single point] |
| CCn1cc(S(=O)(=O)c2cccc(Cl)c2)c(=O)c2cc(F)c(N3CCC(C)CC3)cc21 | inactive |
| COc1cc(OC)cc(-c2nc(-c3ccc(Br)cc3)no2)c1 | inconclusive: 4.11 µM [activator, partial curve, poor fit] |
| COc1ccc(C)cc1NC(=O)CCc1c(C)nn(-c2ccc(N3CCOCC3)nn2)c1C | inconclusive: 9.2 µM [activator, partial curve, poor fit] |
| CC(C)c1ccc(OCc2ccc(C(=O)NN3CCN(C)CC3)o2)cc1 | inconclusive: 0.116 µM [activator, full curve] |

Arranged by molecular weight (ascending): some entries from above

| SMILES | Potency |
| --- | --- |
| CC1=C(C(=O)OCc2ccccc2)C(c2cccc(F)c2)NC(=O)N1 (centres undefined) | inconclusive: 25.9 µM [falling, single point] |
| O=C(COCc1cc(-c2cccs2)on1)NCc1ccc(Cl)cc1 | inactive |
| CCN1CCN(C2=C(NS(=O)(=O)c3ccc(NC(C)=O)cc3)C(=O)c3ccccc3C2=O)CC1 | inconclusive: 16.4 µM [falling, partial curve] |
